Results reported in patent US8586706B2, “Peptide vaccine using mimic molecules of amyloid β peptide” (Kagoshima University, priority 2007, dated 2013).

Test: Non-specific binding of blood sera of immunized mouse to 0.5% gelatin (ELISA background)
Type: in vivo, BALB/c mouse
Settings: serum of day 74 diluted 200-fold; mouse immunized hypodermically with streptavidin conjugate of biotinylated peptide / aluminum hydroxide gel

Compared with “TAT-B7-C15: B7-C15 sequence (glycine added to carboxyl terminus) having a TAT sequence fused at the amino terminus, SEQ ID NO: 26 (YGRKKRRQRRRCYGTKPWMCG; Designed peptide based on the DNA sequence of phage binding to human antiamyloid beta peptide antibody)”, “TAT-B6-L1: B6-L1 sequence having a TAT sequence fused at the amino terminus, SEQ ID NO: 24 (YGRKKRRQRRRGMLDIFAPIRHV; Designed peptide based on the DNA sequence of phage binding to human antiamyloid beta peptide antibody)” is lower in “non-specific binding activity (absorbance at 405 nm; the subtracted OD value) of the blood sera to 0.5% gelatin” value: 0.035 for the first, 0.0255 for the second.

With “TAT-B7-S15: B7-S15 sequence having a TAT sequence fused at the amino terminus, SEQ ID NO: 27 (YGRKKRRQRRRSYGTKPWMSG; Designed peptide based on the DNA sequence of phage binding to human antiamyloid beta peptide antibody)” the “non-specific binding activity (absorbance at 405 nm; the subtracted OD value) of the blood sera to 0.5% gelatin” value was 0.058.
